Results are given in words; binding and its absence hold for the method and conditions named. Some binding calls cover weakened binding; strength is not graded here. For part of these data: Where a sequence is shown, tags or fusion partners need not be part of it.
Tests used:
Ring1B [1] = target: T1, Ring1B (mouse, UniProt Q9CQJ4 2-336); experiment: co-infection of Sf9 cells, FLAG-antibody beads and gel filtration, silver stain (FIG. 13B); association within a complex
T1 construct: mature; Untagged protein: 35S-labelled in vitro translation product (pCITE, full-length cDNA) in the GST pull-down; baculovirus-expressed in Sf9 cells in the co-purifications; also called Ring2; Ring2/Ring1B
T1 sequence (looked up): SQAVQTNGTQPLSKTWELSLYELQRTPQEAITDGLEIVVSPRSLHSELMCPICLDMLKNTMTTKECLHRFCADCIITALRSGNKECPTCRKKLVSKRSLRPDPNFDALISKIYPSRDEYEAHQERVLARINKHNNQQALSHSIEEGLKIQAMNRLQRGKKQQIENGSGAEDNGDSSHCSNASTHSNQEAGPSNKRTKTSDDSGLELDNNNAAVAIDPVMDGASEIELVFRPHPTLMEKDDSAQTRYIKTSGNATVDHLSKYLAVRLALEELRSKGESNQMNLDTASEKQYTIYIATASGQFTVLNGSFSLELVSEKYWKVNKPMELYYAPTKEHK

Pc3 (mouse) [2] = target: T2, Pc3 (mouse) (UniProt Q9QXV1); experiment: as above
T2 sequence (looked up): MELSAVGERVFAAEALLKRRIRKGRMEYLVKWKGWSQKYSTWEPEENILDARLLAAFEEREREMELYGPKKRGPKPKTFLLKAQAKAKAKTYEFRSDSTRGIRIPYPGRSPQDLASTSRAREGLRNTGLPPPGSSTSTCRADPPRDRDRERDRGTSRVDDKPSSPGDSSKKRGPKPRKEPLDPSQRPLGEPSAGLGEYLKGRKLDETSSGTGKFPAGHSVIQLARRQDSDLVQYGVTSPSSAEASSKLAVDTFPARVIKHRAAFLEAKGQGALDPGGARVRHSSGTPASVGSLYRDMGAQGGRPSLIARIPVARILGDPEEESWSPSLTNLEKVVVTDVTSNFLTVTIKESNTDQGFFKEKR

Ring1A [3] = target: T3, Ring1A (mouse, UniProt O35730 1-406); experiment: as above
T3 construct: mature; Untagged protein: 35S-labelled in vitro translation product in the GST pull-down; baculovirus-expressed in Sf9 cells in the co-purifications; also called Ring1/Ring1A
T3 sequence (looked up): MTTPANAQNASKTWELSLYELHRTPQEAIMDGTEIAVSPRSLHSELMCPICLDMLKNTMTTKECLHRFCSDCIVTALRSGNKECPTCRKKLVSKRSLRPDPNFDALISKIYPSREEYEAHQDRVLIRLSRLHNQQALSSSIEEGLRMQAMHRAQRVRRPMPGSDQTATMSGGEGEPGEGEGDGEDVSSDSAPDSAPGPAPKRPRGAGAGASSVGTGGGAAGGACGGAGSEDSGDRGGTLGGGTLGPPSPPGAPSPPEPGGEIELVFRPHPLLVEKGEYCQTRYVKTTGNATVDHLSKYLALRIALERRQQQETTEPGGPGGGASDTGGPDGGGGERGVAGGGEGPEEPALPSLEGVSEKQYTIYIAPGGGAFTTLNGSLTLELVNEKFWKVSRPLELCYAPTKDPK

Ring1B [4] = target: T1, Ring1B; experiment: silver stained gel of the reconstituted Mel-18 containing complex (FIG. 13B)
Pc3 (mouse) [5] = target: T2, Pc3 (mouse); experiment: as above
Ring1A [6] = target: T3, Ring1A; experiment: as above
Ring1B [7] = target: T1, Ring1B; experiment: co-expression in Sf9 cells, anti-FLAG purification (FIG. 7B); association within a complex
Ring1A [8] = target: T3, Ring1A; experiment: as above
Ring1B [9] = target: T1, Ring1B; experiment: co-infection of Sf9 cells, anti-FLAG affinity chromatography and gel filtration, silver stain (FIG. 6B); association within a complex
Pc3 (mouse) [10] = target: T2, Pc3 (mouse); experiment: as above
Ring1A [11] = target: T3, Ring1A; experiment: as above
Ring1B [12] = target: T1, Ring1B; experiment: two-step purification (anti-FLAG affinity, gel filtration) from Sf9 cells, silver stain (FIG. 10A); association within a complex
Pc3 (mouse) [13] = target: T2, Pc3 (mouse); experiment: as above
Ring1A [14] = target: T3, Ring1A; experiment: as above
Ring1B [15] = target: T1, Ring1B; experiment: co-expression in Sf9 cells, anti-FLAG affinity purification and S6 gel filtration, silver stain (FIG. 6B); association within a complex
Pc3 (mouse) [16] = target: T2, Pc3 (mouse); experiment: as above
Ring1A [17] = target: T3, Ring1A; experiment: as above
Ring1B [18] = target: T1, Ring1B; experiment: purification of two-component complexes from infected insect cells (FIG. 13D)

Measured: binding

B1: Flag-Mel-18 (protein)
chain: DYKDDDDKMHRTTRIKITELNPHLMCALCGGYFIDATTIVECLHSFCKTCIVRYLETNKYCPMCDVQVHKTRPLLSIRSDKTLQDIVYKLVPGLFKDEMKRRRDFYAAYPLTEVPNGSNEDRGEVLEQEKGALGDDEIVSLSIEFYEGVRDREEKKNLTENGDGDKEKTGVRFLRCPAAMTVMHLAKFLRNKMDVPSKYKVEILYEDEPLKEYYTLMDIAYIYPWRRNGPLPLKYRVQPACKRLTLPTVPTPSEGTNTSGASECESVSDKAPSPATLPATSSSLPSPATPSHGSPSSHGPPATHPTSPTPPSTAAGTTTATNGGTSNCLQTPSSTSRGRKMTVNGAPCPP
binds: Ring1B [1] | Pc3 (mouse) [2] | Ring1A [3] | Ring1B [4] | Pc3 (mouse) [5] | Ring1A [6]

B2: FLAG®-Bmi-1 (protein, mouse)
chain: DYKDDDDKMHRTTRIKITELNPHLMCVLCGGYFIDATTIIECLHSFCKTCIVRYLETSKYCPICDVQVHKTRPLLNIRSDKTLQDIVYKLVPGLFKNEMKRRRDFYAAHPSADAANGSNEDRGEVADEEKRIITDDEIISLSIEFFDQSRLDRKVNKEKPKEEVNDKRYLRCPAAMTVMHLRKFLRSKMDIPNTFQIDVMYEEEPLKDYYTLMDIAYIYTWRRNGPLPLKYRVRPTCKRMKMSHQRDGLTNAGELESDSGSDKANSPAGGVPSTSSCLPSPSTPVQSPHPQFPHISSTMNGTSNSPSANHQSSFASRPRKSSLNGSSATSSG
not listed: Ring1B [1] | Pc3 (mouse) [2] | Ring1A [3] | Ring1B [4] | Pc3 (mouse) [5] | Ring1A [6] | Ring1B [18]
binds: all other assays above

B3: Mel-18 (protein, UniProt P23798 1-342, looked up)
chain: MHRTTRIKITELNPHLMCALCGGYFIDATTIVECLHSFCKTCIVRYLETNKYCPMCDVQVHKTRPLLSIRSDKTLQDIVYKLVPGLFKDEMKRRRDFYAAYPLTEVPNGSNEDRGEVLEQEKGALGDDEIVSLSIEFYEGVRDREEKKNLTENGDGDKEKTGVRFLRCPAAMTVMHLAKFLRNKMDVPSKYKVEILYEDEPLKEYYTLMDIAYIYPWRRNGPLPLKYRVQPACKRLTLPTVPTPSEGTNTSGASECESVSDKAPSPATLPATSSSLPSPATPSHGSPSSHGPPATHPTSPTPPSTAAGTTTATNGGTSNCLQTPSSTSRGRKMTVNGAPCPP
binds: Ring1B [18]

From patent US20080248458A1 (UNIVERSITY OF NORTH CAROLINA AT CHAPEL HILL, published 2008)
